Binding data for three molecules are collected here from paper PMC4096430.

By UniProt entry, the sequences of proteins in these tests, tags left out. Where a name states a change or a piece, a line headed by the entry shows the natural chain unless it says otherwise. Chains listed by the source or under a name are the forms on record and can include a tag or linker. Residues count along the entry.
UniProt Q96B97: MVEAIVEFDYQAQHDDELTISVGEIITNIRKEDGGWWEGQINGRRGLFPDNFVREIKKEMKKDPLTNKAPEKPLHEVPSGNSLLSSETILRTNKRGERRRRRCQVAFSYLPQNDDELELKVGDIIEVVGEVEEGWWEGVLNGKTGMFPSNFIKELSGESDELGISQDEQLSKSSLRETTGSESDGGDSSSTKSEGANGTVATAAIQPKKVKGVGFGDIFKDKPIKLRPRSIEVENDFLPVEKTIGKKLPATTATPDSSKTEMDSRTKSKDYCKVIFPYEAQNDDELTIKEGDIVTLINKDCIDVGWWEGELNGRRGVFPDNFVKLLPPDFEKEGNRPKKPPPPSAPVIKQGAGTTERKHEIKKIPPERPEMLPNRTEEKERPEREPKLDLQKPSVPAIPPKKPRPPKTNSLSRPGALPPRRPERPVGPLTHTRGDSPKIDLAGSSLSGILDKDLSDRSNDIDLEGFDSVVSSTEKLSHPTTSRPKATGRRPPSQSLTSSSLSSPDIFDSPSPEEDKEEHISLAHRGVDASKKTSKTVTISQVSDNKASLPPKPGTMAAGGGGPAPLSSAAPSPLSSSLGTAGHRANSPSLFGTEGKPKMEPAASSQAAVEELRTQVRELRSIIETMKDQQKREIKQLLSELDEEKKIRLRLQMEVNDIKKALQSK
CIN85-ΔCC (deletion of amino acid 601 to 665), Flag-tagged: residues 1-600 of Q96B97

No constants are given. Whether binding was seen depends on the method and setting. In cells and extracts the contact can be indirect. Some entries that bind do so weakly or less than the wild type. Sequences can lack the tags named with a protein.

In assay [1] the target is CIN85-ΔCC (deletion of amino acid 601 to 665), Flag-tagged (UniProt Q96B97). The assay is described as follows: co-IP; Flag-tagged CIN85 or CIN85-ΔCC co-expressed with tagged (eGFP) Vps protein in HEK293 cells; CIN85 immunoprecipitated by anti-Flag antibody, Vps protein detected by Western blot.
For assay [2], the target named is CIN85 (Cbl-interacting protein of 85 kDa), wild type, Flag-tagged (UniProt Q96B97). The description is as above.

B1: CHMP2A (Vps2A), tagged (protein, UniProt O43633 1-222)
chain: MDLLFGRRKTPEELLRQNQRALNRAMRELDRERQKLETQEKKIIADIKKMAKQGQMDAVRIMAKDLVRTRRYVRKFVLMRANIQAVSLKIQTLKSNNSMAQAMKGVTKAMGTMNRQLKLPQIQKIMMEFERQAEIMDMKEEMMNDAIDDAMGDEEDEEESDAVVSQVLDELGLSLTDELSNLPSTGGSLSVAAGGKKAEAAASALADADADLEERLKNLRRD
With B1, the binding result in assay [1] and in assay [2] was “binds” in each case.

B2: CHMP4C (Vps32C), tagged (protein, UniProt Q96CF2 1-233)
chain: MSKLGKFFKGGGSSKSRAAPSPQEALVRLRETEEMLGKKQEYLENRIQREIALAKKHGTQNKRAALQALKRKKRFEKQLTQIDGTLSTIEFQREALENSHTNTEVLRNMGFAAKAMKSVHENMDLNKIDDLMQEITEQQDIAQEISEAFSQRVGFGDDFDEDELMAELEELEQEELNKKMTNIRLPNVPSSSLPAQPNRKPGMSSTARRSRAASSQRAEEEDDDIKQLAAWAT
As for B2, the binding result in assay [1] and in assay [2] was “binds” in each case.

B3: CHMP4B (Vps32B), eGFP-tagged (protein, UniProt Q9H444 1-224)
chain: MSVFGKLFGAGGGKAGKGGPTPQEAIQRLRDTEEMLSKKQEFLEKKIEQELTAAKKHGTKNKRAALQALKRKKRYEKQLAQIDGTLSTIEFQREALENANTNTEVLKNMGYAAKAMKAAHDNMDIDKVDELMQDIADQQELAEEISTAISKPVGFGEEFDEDELMAELEELEQEELDKNLLEISGPETVPLPNVPSIALPSKPAKKKEEEDDDMKELENWAGSM
As to B3, the binding entry in assay [1] and in assay [2] was “binds weakly” each time.
